# Reference: PMC10366226
# Chains of the proteins cited; added tags and fusions are not shown. Residues count along the entry.
# UniProt Q9QUK6, residues 26-835: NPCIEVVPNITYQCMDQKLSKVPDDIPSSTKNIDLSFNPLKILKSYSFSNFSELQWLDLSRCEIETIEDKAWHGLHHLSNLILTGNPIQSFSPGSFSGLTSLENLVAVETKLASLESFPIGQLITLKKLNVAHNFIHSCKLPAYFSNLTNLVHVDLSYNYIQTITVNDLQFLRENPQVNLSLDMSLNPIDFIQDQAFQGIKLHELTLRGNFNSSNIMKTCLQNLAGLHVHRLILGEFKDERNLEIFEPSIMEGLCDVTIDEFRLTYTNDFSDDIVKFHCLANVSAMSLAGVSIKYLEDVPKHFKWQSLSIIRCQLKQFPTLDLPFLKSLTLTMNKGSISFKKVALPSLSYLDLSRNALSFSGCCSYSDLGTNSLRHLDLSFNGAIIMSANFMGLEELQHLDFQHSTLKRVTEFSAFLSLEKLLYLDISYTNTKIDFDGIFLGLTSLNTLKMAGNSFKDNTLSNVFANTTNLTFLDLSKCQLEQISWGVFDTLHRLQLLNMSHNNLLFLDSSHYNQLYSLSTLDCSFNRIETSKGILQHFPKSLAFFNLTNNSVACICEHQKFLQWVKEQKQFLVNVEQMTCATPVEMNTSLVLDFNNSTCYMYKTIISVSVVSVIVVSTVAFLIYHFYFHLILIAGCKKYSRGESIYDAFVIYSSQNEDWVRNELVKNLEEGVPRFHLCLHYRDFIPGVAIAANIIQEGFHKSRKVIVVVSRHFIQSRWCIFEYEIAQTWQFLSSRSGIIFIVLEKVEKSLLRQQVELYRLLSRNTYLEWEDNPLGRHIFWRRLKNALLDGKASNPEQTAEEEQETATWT
# UniProt Q62083: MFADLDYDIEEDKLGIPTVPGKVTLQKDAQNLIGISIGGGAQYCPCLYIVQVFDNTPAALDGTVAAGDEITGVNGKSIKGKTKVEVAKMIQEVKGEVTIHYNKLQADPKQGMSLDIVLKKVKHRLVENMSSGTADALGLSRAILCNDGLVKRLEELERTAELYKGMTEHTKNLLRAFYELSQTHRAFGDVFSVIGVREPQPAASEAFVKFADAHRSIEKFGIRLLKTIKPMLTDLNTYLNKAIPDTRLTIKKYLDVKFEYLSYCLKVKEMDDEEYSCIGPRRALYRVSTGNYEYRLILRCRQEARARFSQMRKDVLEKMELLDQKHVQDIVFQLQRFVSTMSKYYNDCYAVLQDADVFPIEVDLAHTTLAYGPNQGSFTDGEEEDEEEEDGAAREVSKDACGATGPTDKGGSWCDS
# Results are given in words; binding and its absence hold for the method and conditions named. In cells and extracts the contact can be indirect. Some results given as binding are weak or reduced against the parent protein; the word gives no strength.
# Target: toll-like receptor 4 (mouse (endogenous in liver macrophages)) (UniProt Q9QUK6)
# Assay: co-IP; lysates of mouse liver macrophages incubated with antibodies (anti-PICK1, anti-TLR4, anti-IgG) at 4 °C overnight, then protein A/G magnetic beads; immunoblot
substance,measurement,value
Protein interacting with C α kinase 1 (from UniProt Q62083 1-416),binding,binds
